Test results as given in patent US20250295629A1, “COMPOSITIONS AND METHODS FOR TREATING CANCERS OF THE CENTRAL NERVOUS SYSTEM (CNS), INCLUDING GLIOBLASTOMA AND CHEMORESISTANT CNS TUMORS, AND RELATED COMPOSITIONS AND METHODS FOR INHIBITING AND ELIMINATING CNS CANCER STEM CELLS” (priority 2022, published 2025).
At least one compound was matched to its structure with a doubt left.

Assays:
[1] = system: GBM43 CSC; test: Combination with radiation or temozolomide, MTT assay; format: cell-based, human
Experimental: (§1) To examine the interaction between lucanthone and ionizing radiation, 3000 GBM9 or GBM43 CSC were plated in a 96-well plate and allowed to adhere overnight. 1 hour prior to radiation, cells were treated with 1 or 3 uM lucanthone. Radiation was accomplished using a 100 kVp animal irradiator (Phillips RT-100) which irradiates at 0.75 gy per minute. After radiation, cells were incubated for 5 days, after which an MTT assay was performed.

[2] = system: GBM9 CSC; test: as above; format: cell-based, human
Experimental: as §1

[3] = system: GLUC2 (GL261) cells; test: Crystal violet, dual treatment (lucanthone and TMZ); format: cell-based, mouse; settings: 50 μM or 100 μM TMZ alone, 4 days then 3 days recovery
Experimental: (§2) For dual treatment studies (lucanthone and TMZ), GLUC2 and KR158 cells were plated at a density of 2,500 and 1,000 cells per well in a 12-well plate and allowed to adhere overnight. Cells were then treated with medium, TMZ, lucanthone, or a combination for 4 days. The media were aspirated, and the cells were washed with PBS once and incubated with standard medium for 3 days. The cells were fixed with PFA and treated with 0.5% crystal violet solution as above and photographed. Then lysis solution of 10% SDS in dH2O was added to the plates overnight. To quantify relative crystal violet intensity, the absorbance of the crystal violet-containing supernatant was read under a spectrophotometer at 590 nm with a reference wavelength of 670 nm. Data are graphed as percent of control (medium only-treated cells).,

[4] = system: KR158 cells; test: as above; format: cell-based, mouse; settings: 50 μM or 100 μM TMZ alone, 4 days then 3 days recovery
Experimental: as §2

[5] = system: yH2AX in GLUC2 and KR158 cells; test: yH2AX staining (DNA damage marker); format: cell-based, mouse; settings: single agent, 48 hours
Experimental: For immunocytochemical analysis, GLUC2, KRl 58 and GBM43 cells were plated on glass coverslips overnight. Cells were treated with medium or lucanthone for 48 hours. The medium was aspirated and cells were fixed with 4% PFA for 10 minutes. Plates were then washed 3× with 0.3% TX-100 in PBS and wells were blocked with 3% normal goat serum/0.3% TX-100 in PBS for 1 hour. Cells were stained with primary antibodies overnight (LC3, Ki67, Nestin, Olig2, SOX2, CD133, p62, Cathepsin D, yH2AX). The primary antibody was removed, and cells were again washed 3× with 0.3% TX-100 in PBS after which time cells were incubated with fluorescent secondary antibodies for an hour at room temperature. Cells were then washed 3× with PBS, counterstained with DAPI and imaged under confocal microscopy. GSC were induced to adhere to glass slides by precoating glass slides with Geltrex for an hour.

[6] = system: TMZ-resistant GLUC2 cells; test: TMZ-resistant glioma cells in vitro; format: cell-based, mouse; settings: MTT 72 hours
Experimental: Despite multimodal treatment, the recurrence rate for glioblastoma is ˜100%. It has been proposed that glioma cells change throughout the course of treatment, such that cells surviving treatment may be functionally different than the parental tumor (48-50). To elucidate this question, the ability of lucanthone to mediate oncolytic effects on glioma cells selected for their ability to resist the standard chemotherapy temozolomide, TMZ was analyzed. GLUC2 cells were treated with two cycles (48 hours of treatment and 7 days recovery per cycle) of 250 μM TMZ and 3 cycles of 500 μM TMZ. After this selection, surviving cells started forming spheres in serum-containing medium, similar to the ones observed when these cells were cultured in sternness-promoting medium.

[7] = 75 uM temozolomide with addition of 1 uM temozolomide (so in the source)

## Cn1nnc2c(C(N)=O)ncn2c1=O [temozolomide]
[1]; 75 uM temozolomide alone
  effect on viability of cultures: minimally affect
[1]; [7]
  potentiation of effect on viability: strongly potentiated
[2]; 75 uM temozolomide alone
  effect on viability of cultures: minimally affect
[2]; [7]
  potentiation of effect on viability: strongly potentiated
[3]
  effect on cells (crystal violet): modest effect
[4]
  effect on cells (crystal violet): modest effect
[5]
  yH2AX intensity: evident
[6]
  sensitivity to TMZ compared with parental GLUC2 cells: less sensitive
